Measurements taken from article PMC6167049, “Structural and catalytic properties of the peroxygenase P450 enzyme CYP152K6 from Bacillus methanolicus” (Journal of Inorganic Biochemistry, 2018).
These are yes or no findings as the source states them, for the method shown.

Experiments:
[1] = target: CYP152K6 from Bacillus methanolicus MGA3 (Bacillus methanolicus MGA3) (UniProt I3DZK9); experiment: crystal structure; X-ray, 1.3 Å, space group C2, one monomer per asymmetric unit, tetradecanoic acid bound; both purified
[2] = target: CYP152K6 from Bacillus methanolicus MGA3 (Bacillus methanolicus MGA3) (UniProt I3DZK9); experiment: SEC; gel-filtration analysis; the methods tell only of a Superdex 200 16/600 column in buffer A (100 mM potassium phosphate pH 8.0, 200 mM KCl); both purified

binding [1]: no binding
binding [2]: no binding
B1: CYP152K6 from Bacillus methanolicus MGA3 (enzyme, UniProt I3DZK9 1-419)
chain: MSNINQMPREEGIDSTWRLMEEGYMYILNRRHSFNSDIFETRLLGKKAICMGGKEAAEIFYDTEKFKRKDAAPNRVVQTLFGKNGVQALDGQTHKHRKEMFMSIMSPDELEKLTDITKKQWEIAVDKWEQMDKVILYEEAKEIMCRTACQWAGVPVQENEVKRLTKNLGAMFESAAAVGLKHWLGRHARNYEEIWIEELIDRVRDGKVNPPENTTLHKFSWYRDLEGNLLDTETAAVEVINILRPIVAIAIFINFIALALHHYPEEKEKLKSGDKKYSQMFVQEVRRFYPFFPFVVALVKKDFTWKGYKFEEGTLTLLDLYGTNHDPEIWKNPDVFSPDRFAKWEGSPFSFIPQGGGDYFMGHRCAGEWVTIEVMKVSLDYLTNRMDYEVPDQDLSFSMASMPSIPHSKVVIKNVKKRI
